Reference: patent US4755526A, “Method of inhibiting aromatase” (Eli Lilly and Company, priority 1984, dated 1988)

Biological target: T1, aromatase (Rattus norvegicus, UniProt P22443)
T1 construct: ovarian microsomes are obtained from rats treated with pregnant mares serum gonadotropin; from tissue; host or cells: ovarian microsomes of rats treated with pregnant mares serum gonadotropin
T1 sequence (P22443 1-508): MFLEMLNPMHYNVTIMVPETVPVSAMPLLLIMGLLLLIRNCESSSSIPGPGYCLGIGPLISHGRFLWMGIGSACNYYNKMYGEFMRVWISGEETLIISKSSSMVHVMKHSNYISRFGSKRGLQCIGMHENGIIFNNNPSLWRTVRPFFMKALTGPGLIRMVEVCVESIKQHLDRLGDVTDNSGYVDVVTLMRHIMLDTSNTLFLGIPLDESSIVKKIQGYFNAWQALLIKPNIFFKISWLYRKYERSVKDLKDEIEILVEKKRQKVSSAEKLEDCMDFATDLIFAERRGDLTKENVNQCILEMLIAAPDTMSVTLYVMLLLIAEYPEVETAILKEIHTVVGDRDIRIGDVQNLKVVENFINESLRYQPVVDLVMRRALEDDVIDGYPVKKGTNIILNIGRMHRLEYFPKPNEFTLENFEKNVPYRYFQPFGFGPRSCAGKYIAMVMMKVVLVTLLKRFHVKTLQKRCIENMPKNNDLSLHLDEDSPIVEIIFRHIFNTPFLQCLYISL
Experiment: Aromatase inhibition in the rat ovarian microsome assay
Type: biochemical
Conditions: EC50: concentration required to achieve 50% inhibition of aromatase activity

For Clc1ccccc1C(c1ccccc1)(c1ccccc1)n1ccnc1 [1-[α-(2-chlorophenyl)diphenylmethyl]imidazole], the EC50 was 89 nM.
